Among all 300,000 compounds or so, about 3,700 (1.2%) were called active. The shares of active, inactive and inconclusive entries below differ from those in the screen. Calls follow the shape of the full dose curve; tested in HEK293 cells. Potencies beside an inconclusive call are fits to weak or partial responses and may not hold up.
Assay: qHTS for Inhibitors of binding or entry into cells for Lassa Virus; also: nearly all actives have a fitted effect of over 50% in size
Conditions: Lassa virus pseudotype entry inhibition, cell reporter; series mostly up to 37.9 µM
Potency is read from the fitted curve at half-maximal effect.

| Compound | Potency |
| --- | --- |
| COc1cc(OC)c(N(C)S(=O)(=O)c2cccc(C(=O)Nc3nccs3)c2)cc1Cl | inconclusive: 14.1 µM [inhibitor, single point] |
| COc1cc(/C=N/NC(=O)c2ccoc2C)cc(OC)c1OC | inactive |
| COc1ccc(NC(=O)C2CCCN(S(=O)(=O)c3ccc4c(c3)CCCN4C(C)=O)C2)cc1Cl (stereo not drawn) | inconclusive: 20 µM [inhibitor, single point] |
| CCOc1ccc(-n2c(-c3ccccc3)c(C)n3c4c(=O)n(C)c(=O)n(C)c4nc23)cc1 | inactive |
| CC(/C=C/c1ccc2c(c1)OCO2)=N/NC(=O)C1COc2ccccc2O1 (stereo not drawn) | inconclusive: 4.11 µM [inhibitor, full curve, poor fit] |
| CC(Oc1cc(-n2cnc3ccc(OCC4CCN(C)CC4)cc32)sc1C(N)=O)c1ccccc1Cl (stereo not drawn) | inconclusive: 0.628 µM [inhibitor, full curve, poor fit] |
| CS(=O)(=O)N(CC(=O)Nc1cccc(F)c1)c1cccc([N+](=O)[O-])c1 | inactive |
| N[C@@H](Cn1ccc(=O)c(O)c1)C(=O)O | inconclusive: 8.2 µM [activator, partial curve, poor fit] |
| COc1ccc(CNC(=O)c2[nH]c(C)c(C(C)=O)c2C)cc1 | inactive |
| O=C(Nc1ccc(-c2nc3ncccc3o2)cc1)c1ccco1 | inactive |
| O=C(Nc1nonc1NC(=O)C1CCCCC1)C1CCCCC1 | inconclusive: 23.1 µM [inhibitor, partial curve, poor fit] |
| O=C(CC(CC(=O)c1ccccc1)c1ccccn1)c1ccccc1 | inconclusive: 22.4 µM [inhibitor, partial curve, poor fit] |
| CCCCn1c(O)c(C(C)=Nc2ccc(OCC)cc2)c(=O)[nH]c1=O | inconclusive: 11.2 µM [inhibitor, partial curve, poor fit] |
| CCOC(=O)N1CCN(C(=O)/C(=C/c2ccc(OC)c(OC)c2)NC(=O)c2ccccc2)CC1 | inconclusive: 10 µM [inhibitor, partial curve] |
| Cc1ccc(S(=O)(=O)N(C(=O)c2ccncc2)c2ccc(OC(=O)c3ccncc3)c3ccccc23)c(C)c1 | inactive |
| Cc1cccc(N2CCN(C(=O)c3cccc(S(=O)(=O)N4CCCCC4)c3)CC2)c1C | inconclusive: 11.2 µM [inhibitor, partial curve, poor fit] |
| Cc1cccc(NS(=O)(=O)c2ccc(-n3cccn3)cc2)c1C | inconclusive: 2.51 µM [inhibitor, partial curve, poor fit] |
| Cc1ccc(OCCNC(=O)c2ccc3ccccc3n2)cc1 | inconclusive: 7.08 µM [inhibitor, single point] |
| COc1ccc(CN2CCn3nc(C(=O)NC4CC4)cc3C2=O)cc1 | inactive |
| CN(C)S(=O)(=O)c1ccc(C(=O)Nc2ccnn2C2CCCCC2)cc1 | inactive |
| CCOc1ccc(/C=N/NC(=O)c2[nH]c3ccc(C)cc3c2C)cc1 | inconclusive: 17.8 µM [inhibitor, single point] |
| COC(=O)CNC(=S)NC(=O)c1ccc(C(C)(C)C)cc1 | inactive |
| Cc1nc(Cc2nnc(SCc3nc(N)nc(Nc4ccccc4C)n3)o2)cs1 | inactive |

Individual results from the results shown:
Value of Cc1cccc(NS(=O)(=O)c2ccc(-n3cccn3)cc2)c1C under Potency: inconclusive: 2.51 µM [inhibitor, partial curve, poor fit]
Value of CN(C)S(=O)(=O)c1ccc(C(=O)Nc2ccnn2C2CCCCC2)cc1 under Potency: inactive

(next part)

| Compound | Potency |
| --- | --- |
| CCn1cc(C(=O)NCc2ccc(C)cc2)c(=O)c2cc(S(=O)(=O)N3CCCCCC3)ccc21 | active: 6.31 µM |
| COc1ccc(NC(=O)C2CCN(c3nc(C)nc4c3CCC4)CC2)cc1 | inconclusive: 3.16 µM [inhibitor, full curve] |
| Cc1ccc(S(=O)(=O)N2CCOCC2)cc1C(=O)NCCCn1ccnc1 | inactive |
| COc1ccccc1C1CC(=O)Nc2cc3c(cc21)OCCO3 (stereo not drawn) | inconclusive: 8.2 µM [inhibitor, partial curve] |
| CCN1C(=O)/C(=C2/Sc3ccc(OC)cc3N2C)SC1=Nc1cccc(O)c1 | inconclusive: 0.73 µM [inhibitor, full curve] |
| CCc1ccccc1NC(=O)CN(C)C(=O)COc1ccc(C)nc1[N+](=O)[O-] | inconclusive: 5.62 µM [activator, partial curve, poor fit] |
| COc1ccc(-c2csc(NC(=O)CSc3nc4ccccc4c(=O)[nH]3)n2)cc1 | inconclusive: 3.16 µM [inhibitor, partial curve, poor fit] |
| O=C(Cc1cccc2ccccc12)N1CCCc2ccccc21 | inactive |
| CCn1cnc2cc(NCc3cccs3)ccc21 | inactive |
| Brc1ccc(-c2c[n+]3c(n2-c2ccccc2)SCC3)cc1 | inconclusive: 10 µM [inhibitor, partial curve, poor fit] |
| CCCCCOc1ccc(/C=C/C(=O)Nc2sc(C(C)=O)c(C)c2C(=O)OCC)cc1OC | inactive |
| Cc1ccc2c(C)[nH]c(=O)cc2c1 | inconclusive: 35.5 µM [inhibitor, single point] |
| Clc1ccc(-c2csc(NNC3=NCCCCC3)n2)cc1 | inconclusive: 20.6 µM [inhibitor, single point] |
| CC(N)(Cc1ccc(O)c(O)c1)C(=O)O (stereo not drawn) | inconclusive: 3.53 µM [activator, partial curve, poor fit] |
| Cc1ccc(S(=O)(=O)NC(CCc2ccccc2)CC(=O)C(C)(C)C)cc1 (stereo not drawn) | inconclusive: 7.31 µM [inhibitor, partial curve, poor fit] |
| O=C(CC(O)(CC(=O)OCc1ccccc1)C(=O)OCc1ccccc1)OCc1ccccc1 | inconclusive: 2.51 µM [inhibitor, partial curve, poor fit] |
| CCOC(=O)N1CCc2c(sc(NCc3ccc(OC)c(OC)c3OC)c2C(=O)Nc2ccc(OC)cc2OC)C1 | inconclusive: 11.2 µM [inhibitor, partial curve, poor fit] |
| COc1ccc(NS(=O)(=O)c2ccc(C(=O)NCC3(N4CCOCC4)CCCCC3)cc2)cc1 | inconclusive: 35.5 µM [inhibitor, single point] |
| O=C(CSc1cccc[n+]1[O-])c1ccc(-c2ccccc2)cc1 | inconclusive: 35.5 µM [inhibitor, single point] |
| Cn1c(SCc2nnc(-c3ccc(F)cc3)o2)nnc1C1COc2ccccc2O1 (stereo not drawn) | inactive |
| COc1ccccc1CNC(=O)COc1ccc2c(c1)CCC2 | inconclusive: 0.116 µM [inhibitor, full curve, poor fit] |
| CC(C)c1ccc2c(c1)C(N1CCNCC1)Cc1ccc(F)cc1S2 (stereo not drawn) | inconclusive: 25.1 µM [inhibitor, partial curve, poor fit] |
| O=C(CSc1nnc(NC(=O)C2CC(=O)N(c3ccc(F)cc3)C2)s1)NC1CCCC1 (stereo not drawn) | inactive |

| Compound | Potency |
| --- | --- |
| c1ccc(-n2nnnc2SCc2cn3cccnc3n2)cc1 | inactive |
| COc1ccc(NC(=O)Cn2c(=O)n(Cc3nc(C)no3)c(=O)c3cc4c(cc32)OCO4)cc1OC | inactive |
| COC(=O)c1[nH]c2ccccc2c1NC(=O)CN1CCN(C/C=C/c2ccccc2)CC1 | inconclusive: 8.2 µM [inhibitor, partial curve, poor fit] |
| N#C/C(=C\c1ccc(OCc2ccccc2)cc1)C(N)=O | inactive |
| COc1cc(OC)c(C2Nc3ccccc3-c3nnc(SCc4ccccc4)nc3O2)cc1OC (stereo not drawn) | inactive |
| CCc1cc2c(C)ccc(C)c2nc1SCC(=O)Nc1c(C)[nH]c(=O)[nH]c1=O | inactive |
| Cn1c(=O)c2c(nc(NCc3ccccc3)n2CCCc2ccccc2)n(C)c1=O | inconclusive: 11.2 µM [inhibitor, partial curve] |
| COc1ccc(S(=O)(=O)N2CCC(C(=O)NCC3CC3)CC2)cc1 | inconclusive: 6.31 µM [activator, single point] |
| CCOc1ccc(/C(C)=N/NC(=O)Cn2nc([N+](=O)[O-])cc2C)cc1 | inconclusive: 6.31 µM [activator, single point] |
| CC(=O)c1cccc(NC(=O)Nc2ccccc2)c1 | inactive |
| Cc1sc(NC(=O)c2ccco2)c(C(c2ccncc2)N2CCOCC2)c1C (stereo not drawn) | inactive |
| O[C@@H]1CN(Cc2cccs2)[C@@H](c2ccc(Cl)cc2)C[C@@H]1n1cc(C2CC2)nn1 | inconclusive: 25 µM [inhibitor, partial curve, poor fit] |
| Cc1oc(S(=O)(=O)N2CCOCC2)cc1C(=O)Nc1ccc(F)cc1 | inactive |
| Cc1csc(N/N=C/c2ccccn2)n1 | inconclusive: 1.58 µM [inhibitor, full curve, poor fit] |
| Nn1cnnc1N/N=C/c1ccc(Cl)cc1Cl | inconclusive: 35.5 µM [inhibitor, partial curve, poor fit] |
| O=C(c1ccccc1)c1ccc2cc(O)ccc2c1 | inconclusive: 35.5 µM [inhibitor, single point] |
| Cc1ccc(S(=O)(=O)N2CCCCC2)cc1NC(=O)c1cncc(Br)c1 | inconclusive: 14.1 µM [inhibitor, single point] |
| COc1ccc(-c2nc(CN3CCC(C(=O)NCCCOC(C)C)CC3)c(C)o2)cc1OC | inconclusive: 6.31 µM [activator, partial curve, poor fit] |
| COc1ccc(OC)c(NC(=O)CSCc2cnn(-c3ccccc3)c2-n2cccc2)c1 | inconclusive: 17.8 µM [inhibitor, single point] |
| O=C(/C=C/c1ccccc1Cl)c1ccccc(=O)c1O | inconclusive: 10 µM [inhibitor, partial curve, poor fit] |
| OC(CNCCC1C=Nc2ccccc21)Cn1c2ccc(Cl)cc2c2cc(Cl)ccc21 (stereo not drawn) | inconclusive: 29.1 µM [inhibitor, single point] |
| O=C(c1ccc(CN2CCOCC2)cc1)N1CCN(c2cccc(Cl)c2)CC1 | inactive |
